# Results of single-concentration screens

By UniProt entry, the sequences of proteins in these tests, tags left out. Residues count along the entry.
UniProt P9WFT3, whole entry: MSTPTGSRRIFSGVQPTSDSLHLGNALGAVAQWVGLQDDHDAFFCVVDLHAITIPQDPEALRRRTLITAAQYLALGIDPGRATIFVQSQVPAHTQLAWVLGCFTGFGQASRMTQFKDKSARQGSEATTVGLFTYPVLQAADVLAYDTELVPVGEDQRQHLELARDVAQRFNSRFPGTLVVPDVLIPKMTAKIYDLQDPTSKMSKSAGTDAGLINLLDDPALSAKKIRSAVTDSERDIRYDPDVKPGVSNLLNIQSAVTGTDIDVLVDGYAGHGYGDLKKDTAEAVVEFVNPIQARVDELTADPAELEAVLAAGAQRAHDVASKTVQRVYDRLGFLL
UniProt P9WPC5, whole entry: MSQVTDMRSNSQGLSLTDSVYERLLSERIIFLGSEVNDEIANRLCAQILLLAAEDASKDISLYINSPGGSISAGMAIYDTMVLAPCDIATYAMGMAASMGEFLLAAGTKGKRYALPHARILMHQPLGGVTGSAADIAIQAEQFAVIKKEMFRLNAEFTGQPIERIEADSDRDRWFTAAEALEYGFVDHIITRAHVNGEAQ
UniProt P9WPC3, whole entry partner: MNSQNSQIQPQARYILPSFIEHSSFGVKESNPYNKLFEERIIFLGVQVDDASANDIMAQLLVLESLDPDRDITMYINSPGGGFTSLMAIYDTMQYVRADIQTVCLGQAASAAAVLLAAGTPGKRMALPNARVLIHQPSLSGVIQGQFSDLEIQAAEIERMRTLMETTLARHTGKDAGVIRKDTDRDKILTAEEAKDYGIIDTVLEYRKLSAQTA
UniProt Q8IDJ8, 1-583: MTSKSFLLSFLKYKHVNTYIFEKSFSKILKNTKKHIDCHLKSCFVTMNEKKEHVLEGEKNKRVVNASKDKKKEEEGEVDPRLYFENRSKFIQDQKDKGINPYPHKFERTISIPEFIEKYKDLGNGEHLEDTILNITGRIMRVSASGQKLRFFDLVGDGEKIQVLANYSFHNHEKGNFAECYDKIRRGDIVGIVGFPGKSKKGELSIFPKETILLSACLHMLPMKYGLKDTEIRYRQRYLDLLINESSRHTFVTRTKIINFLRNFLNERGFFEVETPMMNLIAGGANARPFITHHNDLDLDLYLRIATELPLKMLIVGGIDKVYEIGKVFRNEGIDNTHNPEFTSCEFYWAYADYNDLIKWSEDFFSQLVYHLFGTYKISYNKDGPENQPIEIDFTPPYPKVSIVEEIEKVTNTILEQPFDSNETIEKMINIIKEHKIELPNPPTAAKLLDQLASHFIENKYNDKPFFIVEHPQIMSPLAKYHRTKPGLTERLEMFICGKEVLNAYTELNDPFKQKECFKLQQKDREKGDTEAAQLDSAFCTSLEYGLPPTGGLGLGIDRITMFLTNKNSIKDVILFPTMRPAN
UniProt P9WNZ1, whole entry: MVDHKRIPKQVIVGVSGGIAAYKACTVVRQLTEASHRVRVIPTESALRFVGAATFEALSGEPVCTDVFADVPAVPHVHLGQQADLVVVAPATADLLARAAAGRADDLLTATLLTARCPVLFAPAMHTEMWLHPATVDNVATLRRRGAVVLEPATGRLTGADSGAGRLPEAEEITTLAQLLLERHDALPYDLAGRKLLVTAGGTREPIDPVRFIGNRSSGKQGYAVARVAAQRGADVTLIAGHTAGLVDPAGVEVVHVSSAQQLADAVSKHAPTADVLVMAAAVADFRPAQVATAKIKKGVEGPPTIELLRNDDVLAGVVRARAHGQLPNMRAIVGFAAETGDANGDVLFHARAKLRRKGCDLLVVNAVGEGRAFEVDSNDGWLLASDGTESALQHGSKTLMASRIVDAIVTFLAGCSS

From ChEMBL document CHEMBL3988442, “University of Dundee, Small-Polar-MMV Screening Library” (2021).

MtTrpRS: 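Enzyme assay of tryptophanyl-tRNA synthetase; the read-out is not stated. Target: Tryptophan-tRNA ligase, Mycobacterium tuberculosis (UniProt P9WFT3). Concentration: 10 µM. Direction is not recorded; retested compounds ran higher, which suggests that high means inhibition. About 65,000 compounds were tested under these conditions; 0.098% (about 64) showed 50% or more at least once.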
ClpP1P2: 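Protease assay of ClpP1P2, read by the AMC dye that it sets free. Target: ClpP1P2, Mycobacterium tuberculosis (UniProt P9WPC5 and UniProt P9WPC3). Compounds at 50 µM. Direction is inferred from only a few compounds that gave an IC50; most scored high, so higher reads as stronger inhibition. Most other retested compounds had strongly negative values. About 69,000 compounds were tested under these conditions; 0.015% (about 10) showed 50% or more at least once.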
Leishmania in macrophages: 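Cell assay of Leishmania donovani living inside macrophages; the read-out is not stated. Concentration: 30 µM. The record gives no direction; compounds that gave an IC50 in retests scored well above the rest, so higher reads as stronger inhibition. About 69,000 compounds were tested under these conditions; 1.5% (about 1,000) showed 50% or more at least once.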
PfKRS1: 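Enzyme assay of the cytosolic lysyl-tRNA synthetase in 384-well plates, read by luminescence. Target: Lysine-tRNA ligase, Plasmodium falciparum 3D7 (UniProt Q8IDJ8). Concentration: 30 µM. Direction is inferred from only a few compounds that gave an IC50; most scored high, so higher reads as stronger inhibition. Of about 69,000 compounds tested this way, about 49 (0.071%) reached 50% or more in at least one test.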
CoaBC: 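Coenzyme A biosynthesis protein CoaBC, Mycobacterium tuberculosis (UniProt P9WNZ1). Enzyme assay of CoaBC with a phosphate dye (Biomol Green) read at 650 nm. Concentration: 30 µM. Direction is inferred from only a few compounds that gave an IC50; most scored high, so higher reads as stronger inhibition. Most strong results did not repeat in a second test. Size under these conditions: about 67,000 compounds, about 40 of them at 50% or above in at least one test.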

Each number is a percent effect as filed.
How 0% and 100% were set is not recorded. Most values in the screen are low, and negative values occur.
Compounds were drawn at random from those tested, without regard to their results.
Two or more numbers in one place are separate tests of the same structure; such repeats can differ widely.
A dash means the value is not listed here; it may have been measured.

SMILES,MtTrpRS,ClpP1P2,Leishmania in macrophages,PfKRS1,CoaBC
O=C(NCc1cc[nH]n1)NCC(c1ccco1)N1CCCC1 (centres unmarked),1.844%,-0.1495%,24.49%,3.523%,-5.727%
O=C(NCc1ccccn1)NCC(O)c1ccccc1C(F)(F)F (centres unmarked),6.282%,-1.559%,16.8%,5.539%,0.7317%
O=C1C[C@H]2CC[C@@H](CN1)N2C1CCSCC1,0.08376%,12.27%,-,3.874%,-63.48%
c1ccc(OCCCN2CCN(c3ccc4nncn4n3)CC2)cc1,-1.199%,9.486%,17.71%,1.078%,6.747%
CC(C)NC(=O)c1cc(Br)c2c(c1)OCCO2,-6.138%,-25.15%,21.93%,1.16%,0%
COc1cccc(Nc2nc(C3CCNCC3)c3ccccn23)c1.Cl,-,-,-2.973%,-,-
CC(C)N(C(=O)CCc1cccc(F)c1)C1CCOCC1,-5.02%,-13.45%,-11.83%,5.352%,4.854%
CC(C)N(C)S(=O)(=O)N1CCCC1CC(=O)c1cccs1 (centres unmarked),-1.644%,-16.21%,17.44%,1.029%,2.2%
CN(C)C(=O)C1CCC2(CCNCC2)C1.O=C(O)C(F)(F)F (centres unmarked),-,-,5.717%,-,-
CC(=O)NCc1ccc(C(=O)Nc2ccc3c(c2)C(=O)NC3)cc1,4.958%,-12.57%,26.04%,4.951%,-0.3802%
COc1ccc2c(c1)CCCN2C(=O)NCCc1cnn(C)c1,-5.46%,-0.6532%,4.937%,3.376%,-3.212%
CN(Cc1ccsc1)C(=O)CNC(=O)N1CCc2ccccc2C1,-0.1608%,-13.86%,-20.36%,2.128%,-2.066%
CCn1cc(CN2CCCn3nc(CCC(=O)NCCO)cc3C2)cn1,-5.22%,3.965%,10.61%,0.7441%,0.9091%
COc1c(C)cnc(CN2CCn3c(nnc3C3CC3)C2)c1C,4.354%,8.174%,5.101%,10.09%,2.39%
CN(C)c1ncnc2c1CCN(c1cccc(F)c1)CC2,0.7319%,0.2491%,34.37%,4.194%,7.992%
Cc1nnc(NC(=O)NCc2ccc(N3CCOCC3)nc2)s1,2.466%,-12.31%,26.38%,-0.2351%,2.867%
Cc1nc(O)c2c(n1)CCN(Cc1cc(C)sc1C)CC2,6.997%,-13.61%,24.9%,1.191%,12.11%
Cc1cc(NC(=O)NCCc2ccc3c(c2)OCCO3)n(C)n1,-2.678%,12.06%,-16.33%,-0.5597%,3.748%
CC(C)n1cc(CN2CCCN(C(=O)C(C)n3cccn3)CC2)cn1 (centres unmarked),-4.036%,-7.481%,19.51%,1.083%,14.25%
Cn1cc(C(=O)N2CC[C@@H]3[C@@H]2CCN3c2ncc(F)cn2)cn1,3.85%,9.267%,-,5.4%,3.089%
O=C(c1ncccn1)N1CCC[C@]2(C[C@@H](Oc3ncccc3F)CO2)C1,-6.156%,-2.921%,-,-6.764%,-2.343%
CC(=O)c1cn(CCC(=O)N[C@H](C(=O)O)C(C)C)c2ccccc12,-1.608%,11.27%,8.027%,5.656%,-0.4038%
CN(C)S(=O)(=O)N1CC[C@]2(C[C@H](Oc3cccnc3)CO2)C1.O=C(O)C(F)(F)F,-,-,25.01%,-,-
Cc1nn(C)c(C)c1CCC(=O)N(C)Cc1ccc(C#N)cc1,2.294%,2.687%,43.21%,6.229%,5.396%
O=C(NC1CCCN(c2ccccc2F)C1)c1ccon1 (centres unmarked),-3.818%,-4.431%,7.952%,-0.9279%,-
CN(C)CC(C)(C)Cn1cnc(-c2ccccc2)c1-c1cccc(O)c1,0.7341%,-2.168%,24.89%,3.636%,5.145%
CCCN1CCCn2nc(CNC(=O)CC(C)n3ccnc3C)cc2C1 (centres unmarked),-3.069%,-0.2849%,-15.99%,-4.693%,-1.709%
O=C(NCC1CCN(c2ccncc2)CC1)C(O)c1ccccc1 (centres unmarked),2.169%,-16.66%,28.9%,6.42%,0.6329%
Nc1nccnc1CC1CCCN(Cc2c[nH]c3ccccc23)C1 (centres unmarked),0.3397%,-7.799%,20.69%,0.6393%,13.92% and 25.65%
Cc1nnc2n1CCN(C(=O)CN1C(=O)CSc3ccccc31)C2,-3.366%,4.009%,14.28%,5.649%,-2.784%
[H][C@]12CC(COCC)C[C@]1([H])N(C(=O)c1ccc[nH]1)CCO2 (some centres unmarked),-,-,3.764%,-,-
Fc1cccc(-c2nc(CN3CCCCC3Cn3cncn3)co2)c1 (centres unmarked),-0.3934%,-5.408%,37.5%,7.691%,3.599%

The first 3 entries again:

| SMILES | MtTrpRS | ClpP1P2 | Leishmania in macrophages | PfKRS1 | CoaBC |
|---|---|---|---|---|---|
| `O=C(NCc1cc[nH]n1)NCC(c1ccco1)N1CCCC1` (centres unmarked) | 1.844% | -0.1495% | 24.49% | 3.523% | -5.727% |
| `O=C(NCc1ccccn1)NCC(O)c1ccccc1C(F)(F)F` (centres unmarked) | 6.282% | -1.559% | 16.8% | 5.539% | 0.7317% |
| `O=C1C[C@H]2CC[C@@H](CN1)N2C1CCSCC1` | 0.08376% | 12.27% | - | 3.874% | -63.48% |